These are yes or no findings as the source states them, for the method shown. Binding seen in cells or lysates may run through a third protein. Some results given as binding are weak or reduced against the parent protein; the word gives no strength.
Biological target: α-Parvin (human (endogenous in human primary neurons)) (UniProt Q9NVD7)
Test: co-IP; anti-Parvin antibody on RIPA lysates of human primary neurons, untreated, exposed to Tat or TNFα (50 ng/ml, 48 h), or overexpressing PINCH; Western blot of the precipitate

By UniProt entry, the sequences of proteins in these tests, tags left out.
UniProt Q15569: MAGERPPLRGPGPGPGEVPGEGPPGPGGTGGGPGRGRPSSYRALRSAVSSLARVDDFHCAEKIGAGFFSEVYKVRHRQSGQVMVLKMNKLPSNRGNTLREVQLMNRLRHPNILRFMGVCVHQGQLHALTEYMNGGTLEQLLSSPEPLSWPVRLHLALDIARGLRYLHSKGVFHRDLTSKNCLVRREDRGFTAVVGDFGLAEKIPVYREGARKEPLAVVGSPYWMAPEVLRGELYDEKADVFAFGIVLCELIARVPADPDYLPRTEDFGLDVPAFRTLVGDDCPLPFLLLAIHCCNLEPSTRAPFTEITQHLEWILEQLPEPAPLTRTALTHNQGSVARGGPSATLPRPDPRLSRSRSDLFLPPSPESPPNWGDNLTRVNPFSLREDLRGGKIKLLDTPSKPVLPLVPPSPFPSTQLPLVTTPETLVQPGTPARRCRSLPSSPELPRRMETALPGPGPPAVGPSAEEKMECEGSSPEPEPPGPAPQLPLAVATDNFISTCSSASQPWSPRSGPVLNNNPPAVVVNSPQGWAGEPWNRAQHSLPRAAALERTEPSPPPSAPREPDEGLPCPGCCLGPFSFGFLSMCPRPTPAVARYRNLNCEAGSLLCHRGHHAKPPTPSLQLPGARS

testicular protein kinase 1 (TESK1) (from UniProt Q15569 1-626)
binding: binds
